Assay results: PMC3435375
Results are given in words; binding and its absence hold for the method and conditions named. For some assays here: Binding seen in cells or lysates may run through a third protein. Some binding calls cover weakened binding; strength is not graded here. Tags and fused reporters may be left off the sequences shown. Blank lines part the entries; values can stand above or below the binder they belong to.

Assays:
[1] = biological target: GAL4BD fusion of K207NT, KRIT1 N-terminal fragment (residues 1-207) (UniProt O00522); assay: two-hybrid; small-scale assay; pGADT7-Nd1-L cotransformed with pGBKT7 KRIT1 constructs into AH109; growth on medium lacking His and Ade (HIS3, ADE2) and beta-galactosidase filter assay (LACZ)
[2] = biological target: T1, GAL4BD fusion of K1AFERM, the FERM domain of KRIT1A (418-736) (pGBKT7-K1AFERM) (UniProt O00522); assay: as above
T1 sequence: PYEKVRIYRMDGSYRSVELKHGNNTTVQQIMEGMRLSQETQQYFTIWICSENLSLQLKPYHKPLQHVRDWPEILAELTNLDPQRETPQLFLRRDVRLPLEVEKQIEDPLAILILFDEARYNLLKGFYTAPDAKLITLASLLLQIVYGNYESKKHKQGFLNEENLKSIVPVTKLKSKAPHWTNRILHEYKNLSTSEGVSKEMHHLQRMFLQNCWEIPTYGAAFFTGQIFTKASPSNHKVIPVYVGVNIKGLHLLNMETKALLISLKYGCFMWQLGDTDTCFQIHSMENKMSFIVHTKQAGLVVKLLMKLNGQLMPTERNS

[3] = biological target: T2, GAL4BD fusion of K1AΔ207, the N-terminal truncated portion of KRIT1A (208-736) (UniProt O00522); assay: as above
T2 sequence: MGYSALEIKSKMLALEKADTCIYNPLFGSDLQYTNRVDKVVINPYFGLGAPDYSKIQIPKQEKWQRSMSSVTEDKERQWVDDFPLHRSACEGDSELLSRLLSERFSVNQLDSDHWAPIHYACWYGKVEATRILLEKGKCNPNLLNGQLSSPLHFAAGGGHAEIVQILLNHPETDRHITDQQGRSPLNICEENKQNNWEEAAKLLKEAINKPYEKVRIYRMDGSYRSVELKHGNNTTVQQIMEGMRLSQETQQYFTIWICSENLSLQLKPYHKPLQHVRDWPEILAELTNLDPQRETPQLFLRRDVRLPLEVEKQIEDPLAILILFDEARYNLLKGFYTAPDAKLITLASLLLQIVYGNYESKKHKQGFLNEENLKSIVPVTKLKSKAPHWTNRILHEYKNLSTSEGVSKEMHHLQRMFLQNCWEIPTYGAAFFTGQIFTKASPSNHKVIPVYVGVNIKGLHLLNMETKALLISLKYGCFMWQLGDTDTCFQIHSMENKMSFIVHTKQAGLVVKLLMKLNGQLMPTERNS

[4] = biological target: GAL4BD fusion of full-length KRIT1A (pGBKT7) (UniProt O00522); assay: as above
[5] = biological target: T3, GAL4BD-K272NT, the N-terminal 272 aa fragment of KRIT1 fused to the GAL4 DNA binding domain (UniProt O00522); assay: as above
T3 sequence: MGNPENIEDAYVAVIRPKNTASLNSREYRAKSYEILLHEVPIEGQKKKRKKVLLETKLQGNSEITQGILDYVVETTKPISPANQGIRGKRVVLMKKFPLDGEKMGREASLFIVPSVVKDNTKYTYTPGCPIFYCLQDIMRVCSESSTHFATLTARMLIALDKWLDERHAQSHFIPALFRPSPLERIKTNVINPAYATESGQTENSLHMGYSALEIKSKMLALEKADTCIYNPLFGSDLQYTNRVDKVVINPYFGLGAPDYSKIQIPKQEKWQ

[6] = biological target: GST-KRIT1A (full length KRIT1A in pGEX-4T1) (UniProt O00522); assay: pull-down; GST fusion proteins (40 ug) immobilised on glutathione-sepharose 4B beads, incubated 1 h at room temperature with HEK293 lysates overexpressing GFP- or 2FLAG-tagged proteins; washed three times with PBS; anti-GFP or anti-FLAG western blot; only the target purified
GST-K272NT = biological target: T4, GST-K272NT (UniProt O00522); assay: as above
T4 sequence: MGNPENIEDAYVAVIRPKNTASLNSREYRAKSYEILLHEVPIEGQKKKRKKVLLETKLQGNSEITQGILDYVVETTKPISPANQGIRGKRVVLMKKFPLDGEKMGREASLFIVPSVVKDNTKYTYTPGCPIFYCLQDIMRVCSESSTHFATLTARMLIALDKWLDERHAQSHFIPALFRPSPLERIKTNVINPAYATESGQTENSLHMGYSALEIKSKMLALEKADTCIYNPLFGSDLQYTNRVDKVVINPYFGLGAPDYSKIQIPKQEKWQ

[7] = biological target: T5, GST-K1AFERM, the FERM domain of KRIT1A fused to GST (UniProt O00522); assay: as above
T5 sequence: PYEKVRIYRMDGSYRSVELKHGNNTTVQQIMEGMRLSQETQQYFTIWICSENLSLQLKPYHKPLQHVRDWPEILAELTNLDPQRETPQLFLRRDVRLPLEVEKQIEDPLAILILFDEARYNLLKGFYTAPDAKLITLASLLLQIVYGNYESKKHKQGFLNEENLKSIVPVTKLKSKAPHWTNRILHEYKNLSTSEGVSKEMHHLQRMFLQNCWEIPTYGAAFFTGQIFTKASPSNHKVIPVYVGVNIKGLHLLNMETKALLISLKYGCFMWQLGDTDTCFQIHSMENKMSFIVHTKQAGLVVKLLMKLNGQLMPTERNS

[8] = biological target: GFP-KRIT1A (EGFP-tagged full-length KRIT1A, pEGFP-KRIT1A) (UniProt O00522); assay: co-IP; HEK293 cells co-transfected with EGFP-KRIT1A or EGFP-KRIT1B and 2FLAG-Nd1-L; precipitated with anti-KRIT1, blotted with anti-FLAG
[9] = biological target: T3, GAL4BD-K272NT, the N-terminal 272 aa fragment of KRIT1 fused to the GAL4 DNA binding domain; assay: two-hybrid; GAL4 … system 3; pGBKT7-K272NT bait in AH109 mated with Y187 carrying a mouse embryo cDNA library in pACT2; positives rescued and retransformed into pGBKT7-K272NT- or pGBKT7-containing AH109; growth on SD/-Trp/-Leu/-His/-Ade
[10] = biological target: T6, GST-Nd1-L (496-642) fusion protein (mouse) (UniProt Q920Q8); assay: pull-down; GST fusion proteins (40 ug) immobilised on glutathione-sepharose 4B beads, incubated 1 h at room temperature with HEK293 lysates overexpressing GFP- or 2FLAG-tagged proteins; washed three times with PBS; anti-GFP or anti-FLAG western blot; only the target purified
T6 sequence: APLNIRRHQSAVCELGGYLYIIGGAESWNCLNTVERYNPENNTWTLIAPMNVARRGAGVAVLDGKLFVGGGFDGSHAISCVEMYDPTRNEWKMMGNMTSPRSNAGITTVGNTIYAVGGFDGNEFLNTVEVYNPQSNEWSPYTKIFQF

binding [1]: no binding
binding [2]: binds
binding [3]: binds
binding [4]: binds
binding [5]: binds
B1: GAL4AD fusion of full-length Nd1-L (pGADT7-Nd1-L) (protein, UniProt Q920Q8-1 1-642)
chain: MIPNGYLMFEDENFIESSVAKLNALRKSGQFCDVRLQVCGHEMLAHRAVLACCSPYLFEIFNSDSDPHGVSHVKLDDLNPEAVEVLLNYAYTAQLKADKELVKDVYSAAKKLKMDRVKQVCGDYLLSRMDVTSCISYRNFASCMGDSRLLNKVDAYIQEHLLQISEEEEFLKLPRLKLEVMLEDNVCLPSNGKLYTKVINWVQRSIWENGDSLEELMEEVQTLYYSADHKLLDGNPLDGQAEVFGSDDDHIQFVQKKPPRENGHKQISGSSTGCLSSPNASMQSPKHEWKIVASEKTSNNTYLCLAVLDSTFCVIFLHGRNSPQSSPTSTPKLSKSLSFEMQPDELLEKPMSPMQYARSGLGTAEMNGKLIAAGGYNREECLRTVECYDPHTDHWSFLAPMRTPRARFQMAVLMGQLYVVGGSNGHSDDLSCGEMYDPNIDDWTPVPELRTNRCNAGVCALNGKLYIVGGSDPYGQKGLKNCDVFDPVTKSWTSCAPLNIRRHQSAVCELGGYLYIIGGAESWNCLNTVERYNPENNTWTLIAPMNVARRGAGVAVLDGKLFVGGGFDGSHAISCVEMYDPTRNEWKMMGNMTSPRSNAGITTVGNTIYAVGGFDGNEFLNTVEVYNPQSNEWSPYTKIFQF

binding [6]: binds
binding (GST-K272NT): binds
binding [7]: binds
binding [8]: binds
B2: 2FLAG-Nd1-L (pCR-2FLAG-Nd1-L, murine full-length Nd1-L) (protein, UniProt Q920Q8-1 1-642)
chain: MIPNGYLMFEDENFIESSVAKLNALRKSGQFCDVRLQVCGHEMLAHRAVLACCSPYLFEIFNSDSDPHGVSHVKLDDLNPEAVEVLLNYAYTAQLKADKELVKDVYSAAKKLKMDRVKQVCGDYLLSRMDVTSCISYRNFASCMGDSRLLNKVDAYIQEHLLQISEEEEFLKLPRLKLEVMLEDNVCLPSNGKLYTKVINWVQRSIWENGDSLEELMEEVQTLYYSADHKLLDGNPLDGQAEVFGSDDDHIQFVQKKPPRENGHKQISGSSTGCLSSPNASMQSPKHEWKIVASEKTSNNTYLCLAVLDSTFCVIFLHGRNSPQSSPTSTPKLSKSLSFEMQPDELLEKPMSPMQYARSGLGTAEMNGKLIAAGGYNREECLRTVECYDPHTDHWSFLAPMRTPRARFQMAVLMGQLYVVGGSNGHSDDLSCGEMYDPNIDDWTPVPELRTNRCNAGVCALNGKLYIVGGSDPYGQKGLKNCDVFDPVTKSWTSCAPLNIRRHQSAVCELGGYLYIIGGAESWNCLNTVERYNPENNTWTLIAPMNVARRGAGVAVLDGKLFVGGGFDGSHAISCVEMYDPTRNEWKMMGNMTSPRSNAGITTVGNTIYAVGGFDGNEFLNTVEVYNPQSNEWSPYTKIFQF

binding [9]: binds
B3: C17 clone, Nd1-L (496-642) fused with GAL4AD in the pACT2 vector (domain or fragment, UniProt Q920Q8-1 496-642)
chain: APLNIRRHQSAVCELGGYLYIIGGAESWNCLNTVERYNPENNTWTLIAPMNVARRGAGVAVLDGKLFVGGGFDGSHAISCVEMYDPTRNEWKMMGNMTSPRSNAGITTVGNTIYAVGGFDGNEFLNTVEVYNPQSNEWSPYTKIFQF

binding [10]: binds
B4: GFP-K272NT (EGFP-tagged K272NT, pEGFP-C2) (domain or fragment, UniProt O00522 1-272)
chain: MGNPENIEDAYVAVIRPKNTASLNSREYRAKSYEILLHEVPIEGQKKKRKKVLLETKLQGNSEITQGILDYVVETTKPISPANQGIRGKRVVLMKKFPLDGEKMGREASLFIVPSVVKDNTKYTYTPGCPIFYCLQDIMRVCSESSTHFATLTARMLIALDKWLDERHAQSHFIPALFRPSPLERIKTNVINPAYATESGQTENSLHMGYSALEIKSKMLALEKADTCIYNPLFGSDLQYTNRVDKVVINPYFGLGAPDYSKIQIPKQEKWQ
